Most values lie at the floor of the assay. Slopes are relative: functional sequences can read slightly below zero.
Test system: Saccharomyces cerevisiae PS128 hsf1 delta, HSF1(1-493) fusion
Experiment: growth estimate (transactivation domain function in HSF1 fusion, heat-shock survival) (a.u. (slope of normalised read count over time)); higher = stronger growth at 37°C, i.e. more transactivation activity
Conditions: library: random library

Substance	growth estimate
VGETPPSGWARPYPYADAQC	< -0.25
VGFPGLGFLRRNLWEACWGW	< -0.25
VGG	< -0.25
VGGAWR	-0.246
VGGE	< -0.25
VGGGKTQNRNNSLLFSLGHR	< -0.25
VGGGMAPAEIPQCETAPIWR	-0.178
VGGGVRNPLVDYKASRFRTC	< -0.25
VGGIFRAMDEMNSIVSGE	< -0.25
VGGLWREW	< -0.25
VGGPFPSS	< -0.25
VGGPLAKNGLLKFEFPQRTN	< -0.25
VGGRFVFSRSNSFGLDGGEM	< -0.25
VGGVKANNGKYYRETPYQIP	< -0.25
VGGWLRLSGNSSHLESELST	< -0.25
VGHRWIRYTDSGWSRASGNC	< -0.25
VGHSSVIVRKTVRSHSLRRL	< -0.25
VGIMS	< -0.25
VGINRPGSLTERHYR	< -0.25
VGIQRKQCRRIRGLILYCAH	< -0.25
VGIV	< -0.25
VGK	< -0.25
VGKHWRWGPRWDN	< -0.25
VGKIYRWAAPSTSTL	< -0.25
VGKPSQRRLDRGLLTERDHE	< -0.25

Substance	growth estimate
VGLCENESLDDHHRTLGVDH	< -0.25
VGLHSSLGPIWQRYEVSLER	< -0.25
VGLHTRLT	< -0.25
VGLIWVYCATYRLALALARV	< -0.25
VGLKSGSHITVADLVDRVFA	< -0.25
VGLQSCRRNDEILKNPHRWR	< -0.25
VGNIQPHWAKA	< -0.25
VGNLRCVQLNAIIG	< -0.25
VGNSYVDVNLPHHHTVRLVI	< -0.25
VGNTPYMTLNEYATPRTTLR	< -0.25
VGPPQYSIGHEV	< -0.25
VGPR	< -0.25
VGPSSALVILGRGCG	< -0.25
VGQRLVAERIVAEQALSLDS	< -0.25
VGR	< -0.25
VGRAL	< -0.25
VGRIRGEVGRIKISLPFMVG	< -0.25
VGRKFVETVGVSPLPVYGRP	< -0.25
VGRTDTMRFGPGLRC	< -0.25
VGRVAEVLWTQISDTFECPG	< -0.25
VGRVSGRLDDGDMSLIPPLV	< -0.25
VGSGHSSVSRRSPHIRPTLA	< -0.25
VGSRGSASKYLSSQGS	< -0.25
VGSSALSADRGGASYQSQDS	< -0.25
VGSTSGPS	< -0.25

Substance	growth estimate
VGTFRGMFRVIGPMGCFLGV	< -0.25
VGTLTVVW	-0.245
VGTWCRCSW	< -0.25
VGVGVLDNKIYVSPQRSRGS	< -0.25
VGVLSPCQTPLYRGWKTHHR	< -0.25
VGVM	< -0.25
VGVMVRTGRRDDK	< -0.25
VGVRVILVEICPRANRTVT	< -0.25
VGVVKT	< -0.25
VGVVTDRGVELG	< -0.25
VGWEISRISV	< -0.25
VGYSGYHLEFQGAFLQCPST	< -0.25
VHARGGYGRPYPDNWLEY	< -0.25
VHARLGPVSERPISLMMSVP	< -0.25
VHATIR	< -0.25
VHCFLLTYKLLSCTTCRDR	< -0.25
VHFISTRAMIGFRAQAGNTN	< -0.25
VHFRVAGELG	< -0.25
VHGDTPLPKVSLST	< -0.25
VHGPAMVNYPAASSCTRAGR	< -0.25
VHGTARAPFER	< -0.25
VHGVLSGSLLQGLRRAEAFQ	< -0.25
VHKYDGTRIW	< -0.25
VHLGSVGSPSLGNERVAPVA	< -0.25
VHLQGLHDSGPGRSSEPVDG	< -0.25

Single values from the entries so far.
VHFISTRAMIGFRAQAGNTN | growth estimate: < -0.25
VGRAL | growth estimate: < -0.25
VGPPQYSIGHEV | growth estimate: < -0.25

(listing goes on)

Substance	growth estimate
VHPDDNYITRWTTELNGNGF	< -0.25
VHPHCHRLFGEILTWTFSCR	< -0.25
VHRPYVARLDIHK	< -0.25
VHTLTIKSVVVFDVHGSTGN	< -0.25
VHTLYAVLDTGAKPDLIRSY	< -0.25
VHTTRSRDTWDETVKVDRVR	< -0.25
VIACCRQHAIHF	< -0.25
VICISYRAGWLLESSSLALG	< -0.25
VICSDRCCE	< -0.25
VICSRM	< -0.25
VIDDFLQSSGHSKAACV	< -0.25
VIDFTDVRCDEGLCVVSACT	< -0.25
VIDVCRYVGSASIEQKSASV	< -0.25
VIECGRPQTKRGTVVKCNYS	< -0.25
VIERDYHGHCMTCHVL	< -0.25
VIFVTIGPPGELLALGGRGL	< -0.25
VIFYEGIV	< -0.25
VIGDWLLQFSKVKLAAHRPW	< -0.25
VIGTNGRALRLGTCFDGTIM	< -0.25
VIGV	< -0.25
VIGWTTTGWR	< -0.25
VIHIAPRIGT	< -0.25
VIHRHFGPPLQQAIRTGTLG	< -0.25
VIIQAMITEMYPT	< -0.25
VIKPQRAQERFGTNASQFMV	< -0.25

Nothing new here: an excerpt of the list.
Substance	growth estimate
VIDVCRYVGSASIEQKSASV	< -0.25
VIECGRPQTKRGTVVKCNYS	< -0.25
VIERDYHGHCMTCHVL	< -0.25
VIFVTIGPPGELLALGGRGL	< -0.25
VIFYEGIV	< -0.25

Going on with the list:

Substance	growth estimate
VIMGS	< -0.25
VIMLSVHGD	< -0.25
VINPSSYYPGKTRTFSSCVR	< -0.25
VIPSRSGKGASFG	< -0.25
VIRKDGSGSWVSVGVLWVDH	< -0.25
VISEAIRTVLAEHLKNKW	< -0.25
VISLQRVDAVLDYQKL	< -0.25
VISTVH	< -0.25
VIVGRCEMTRSCNTGEVKRT	< -0.25
VIWNKWAVESCTLTGHPA	< -0.25
VIY	< -0.25
VIYRFGMSANHRSERGSCVG	< -0.25
VKAGCLRANYGSITRCDDLT	< -0.25
VKALLEAKCRHSLAHPNTGL	< -0.25
VKANKRYLAGLRYDIVVD	< -0.25
VKASVVVRARRIPVDPTKAQ	< -0.25
VKD	< -0.25
VKDKSYVLVAL	< -0.25
VKEGRLEDSPLWGVKRIDIT	< -0.25
VKGDMYGKCGYLQG	< -0.25
VKGHYWQS	< -0.25
VKGPMDPRL	< -0.25
VKHADHPRVRKPEAIWVYAP	-0.169
VKHDRG	-0.221
VKIQNAIQRSKHTLIRGCPG	< -0.25

Substance	growth estimate
VKKTPTWPQDFFPIWGHSLP	-0.245
VKL	< -0.25
VKLCYRRACESGVTVPNLEG	< -0.25
VKLLIARGDRLAAMPRNGYA	< -0.25
VKLSPSR	-0.245
VKPGCYVMVGGACQRSCAPG	< -0.25
VKQSGLSNG	< -0.25
VKRDASVKSTDLGSDGYV	< -0.25
VKRI	< -0.25
VKSDKRRWAS	< -0.25
VKSHQGWWLVSSCD	< -0.25
VKSTPRRLLPAPPVSSKGFI	< -0.25
VKTC	< -0.25
VKTVNRDLRPP	< -0.25
VKV	< -0.25
VKVFTEWAYASGAQISGTAR	< -0.25
VKWAGRS	< -0.25
VKWSGPLP	< -0.25
VKWYELFNI	< -0.25
VLA	< -0.25

— the supplement of paper PMC5949888
